The list shows a part of the results. Shown are side measurements of this screen, not its main read-out; they come without a call. Compounds called inactive in the main read-out are mostly missing here. Words in brackets tell the shape of the fitted curve; partial curves, single points and poor fits give uncertain potencies.
Assay: qHTS Assay for Lipid Storage Modulators in Drosophila S3 Cells;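 for cell number change: cells counted by Cell Tracker Red CMTPX staining in the red channel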
Settings: BODIPY lipid droplet fluorescence, 18-24 h; for cell number change: measured here: cell count max response, cells fed with added oleic acid
How it was run: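 Drosophila S3 cells loaded with oleic acid (400 uM, as added) and compounds at several concentrations; lipid droplets imaged by 488-nm laser-scanning cytometry, 500–530 nm intensity and object ratio to cell channel. Percent activity normalized to 20 uM Triacsin C.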

[1] = measured here: cell number channel AC50, cells fed with added oleic acid
[2] = measured here: lipid fluorescence (Fed channel) AC50, cells fed with added oleic acid

Structure (SMILES) | cell number change [%] | AC50 [1] | AC50 [2]
O=C(/C=C/c1c[nH]c2ccccc12)c1cccc2ccccc12 | -54 | 29.1 µM [falling, single point] | 8.2 µM [falling, partial curve]
CC(=O)NS(=O)(=O)c1ccc(N=c2ssc3c2-c2ccc(C)cc2NC3(C)C)cc1 | 5.31 |  | 4.61 µM [rising, full curve]
CC(C)(C)NC(=O)c1cccc(NC(=O)CSc2ccccc2)c1 | -11.5 |  | 6.51 µM [falling, single point]
Cc1cccn2c(=O)c3cc(C(=O)N4COCC4(C)C)sc3nc12 | 4.09 | 0.092 µM [rising, partial curve, poor fit] | 1.3 µM [rising, full curve]
CCOc1ccc(N2CC(C(=O)Nc3ccc(S(=O)(=O)N4CCCCC4)cc3)CC2=O)cc1 (stereo unspecified) | -13 |  | 
CCCNC(=O)c1onc(CSc2ccncc2)c1C(=O)NCCC | 15.5 |  | 0.58 µM [rising, full curve, poor fit]
CN(C)C=Nc1c(Br)cc(Br)c2nonc12 | -100 | 5.8 µM [falling, full curve] | 2.91 µM [falling, full curve]
Cc1cccc(C)c1NC(=O)CNC(=O)CCCN1C(=O)c2cccc3cccc(c23)C1=O | -32.3 | 29.1 µM [falling, single point] | 5.17 µM [falling, full curve, poor fit]
Cc1ccc(S(=O)(=O)N2CCC(C(=O)N3CCc4ccccc43)CC2)cc1 | 17.8 |  | 20.6 µM [rising, single point]
COCCCn1nnnc1SCC(=O)Nc1nc(C)c(C)s1 | 4.1 |  | 0.731 µM [rising, partial curve]
COc1ccc(Cl)cc1C(Nc1cccnc1)c1ccc2cccnc2c1O (stereo unspecified) | -8.24 |  | 20.6 µM [falling, single point]
CS(=O)(=O)Nc1cccc(C(=O)CC2(O)C(=O)Nc3ccc(Br)cc32)c1 (stereo unspecified) | 24.4 |  | 3.66 µM [rising, full curve, poor fit]
Cc1ccc(C(=O)Nc2ccc(NC(=O)c3ccc(C)o3)cc2)o1 | -19.4 |  | 29.1 µM [rising, single point]
COc1ccc(Cl)cc1NC(=O)C1CCCN(c2ncnc3c2nc2n3CCCCC2)C1 (stereo unspecified) | -15.3 |  | 29.1 µM [rising, single point]
CCc1cc2c(=O)c(-c3nc4ccccc4n3C)c(C)oc2cc1OC(C)=O | 0.291 |  | 29.1 µM [falling, single point]
Cc1cccc(C)c1NC(=O)CNC(=O)Cn1nc(C)c(C)c(C#N)c1=O | 31.3 | 16.4 µM [rising, single point] | 
C[C@@H](C(=O)Nc1ccc2ccccc2c1)[C@H]1C[C@]1(C)[C@H](NC(=O)c1cccnc1)c1ccccc1 | 6.79 |  | 1.46 µM [rising, full curve]
CCC1CCCCN1c1nc2c(C=O)c(C)nn2c2ccccc12 (stereo unspecified) | -24 |  | 18.4 µM [falling, single point]
O=C(NCc1ccc(Cl)cc1)C1CCCO1 (stereo unspecified) | 17.9 |  | 
CCOc1ccccc1NC(=O)c1ccc2c(c1)C(=O)N(CC)C2=O |  |  | 0.517 µM [rising, single point]

A few values from the list:
Value of O=C(/C=C/c1c[nH]c2ccccc12)c1cccc2ccccc12 under AC50 [1]: 29.1 µM [falling, single point]
Value of COCCCn1nnnc1SCC(=O)Nc1nc(C)c(C)s1 under cell number change [%]: 4.1
Value of CCC1CCCCN1c1nc2c(C=O)c(C)nn2c2ccccc12 (stereo unspecified) under cell number change [%]: -24
Value of Cc1cccn2c(=O)c3cc(C(=O)N4COCC4(C)C)sc3nc12 under cell number change [%]: 4.09

Following part.

Structure (SMILES) | cell number change [%] | AC50 [1] | AC50 [2]
Cc1nc(NC(=O)C2CC2)sc1C(=O)Nc1ccccc1 | -13.8 |  | 11.6 µM [falling, partial curve]
O=C(NCCc1ccccc1)C(=O)NCC1CCCN1S(=O)(=O)c1ccccc1 (stereo unspecified) |  | 0.116 µM [falling, full curve, poor fit] | 
CSc1oc(-c2ccccc2)nc1C(N)=O | 38.7 | 20.6 µM [rising, single point] | 11.6 µM [rising, partial curve]
COC1=CC(=O)CC(C)C12Oc1c(Cl)c(OC)cc(OC)c1C2=O (stereo unspecified) | 19.5 |  | 0.0517 µM [falling, full curve, poor fit]
O=C(Cc1ccc(S(=O)(=O)N2CCOCC2)s1)N(Cc1ccccc1)c1ccccc1 | 18.1 |  | 
CC1=CCC2C(=O)N(c3cccc(C(=O)NC(C)c4ccccc4)c3)C(=O)C2C1 (stereo unspecified) |  | 1.3 µM [rising, full curve] | 29.1 µM [rising, single point]
Cc1cc(OCC(=O)Nn2cnnc2)c(C)cc1Br | -16.3 | 5.8 µM [falling, single point] | 
O=C(c1cccs1)N1CCN(c2nc3ccccc3s2)CC1 | 19.4 | 0.184 µM [rising, full curve] | 0.731 µM [rising, full curve]
CCOC(=O)c1nn(-c2ccc(C)cc2)c(=O)cc1OCC(=O)Nc1ccc(OC)cc1 | 8.84 |  | 
O=C(Cn1nc(-c2cccc([N+](=O)[O-])c2)c2ccccc2c1=O)Nc1cccnc1 | 63.4 | 2.06 µM [rising, full curve] | 2.91 µM [rising, partial curve]
Cc1cccc(NC2=NC(C)(C)N=C(N)N2)c1 | -17.5 | 0.092 µM [falling, full curve, poor fit] | 6.51 µM [falling, single point]
Cn1nnnc1SCc1ccc(CSc2nnnn2C)cc1 | 38.4 |  | 0.116 µM [falling, full curve, poor fit]
COC(=O)c1c(C)[nH]c(C(C)=O)c1C | 16.5 |  | 
Cc1cc(Cl)c(S(=O)(=O)N2CCN(c3ccccn3)CC2)cc1OCC(N)=O | -1.69 |  | 0.184 µM [rising, full curve, poor fit]
O=Cc1cn(-c2ccccc2)nc1-c1ccccn1 | 3.48 |  | 
COc1ccccc1N1CCN(S(=O)(=O)/C=C/c2ccccc2)CC1 | 4.8 |  | 
CN(CC(=O)Nc1ccncc1)S(=O)(=O)c1ccc(Br)cc1 | -0.799 |  | 0.58 µM [falling, single point]
Cc1occc1C(=O)Nc1cnn(CCCC(=O)O)c1 | 11.3 |  | 
COc1cc2c3nnc(-c4ccc(F)cc4)c-3cn(Cc3ccc(F)cc3)c2cc1OC | -75.6 | 20.6 µM [falling, single point] | 29.1 µM [falling, single point]
COc1ccc(N2CCN(C(=O)C3CCCN(S(=O)(=O)c4c(C)noc4C)C3)CC2)cc1 (stereo unspecified) | -14.8 |  | 6.51 µM [falling, partial curve, poor fit]

Structure (SMILES) | cell number change [%] | AC50 [1] | AC50 [2]
O=C1NC(=Nc2ccccc2Cl)S/C1=C\c1cccc([N+](=O)[O-])c1O | -32.6 | 2.59 µM [falling, full curve] | 
O=C(CSCCc1ccccn1)Nc1cccnc1 | 14.8 |  | 6.51 µM [falling, single point]
O=C(NCCC1=CCCCC1)c1ccc(Cl)c(S(=O)(=O)Nc2ccccc2)c1 |  |  | 6.51 µM [falling, single point]
CCOc1ccc(CCNC(=O)C(CC)n2nc(C)n3c(cc4sccc43)c2=O)cc1OCC (stereo unspecified) | -97.6 | 0.58 µM [rising, partial curve] | 10.3 µM [falling, partial curve]
COc1ccc(NC(=O)C(OC(=O)c2cnccn2)c2ccccc2)cc1Cl (stereo unspecified) | -4.4 |  | 29.1 µM [rising, single point]
CN(CC(=O)NCCc1ccc(F)cc1)CC(=O)Nc1ccc(F)c(F)c1F | 25 | 0.231 µM [rising, full curve, poor fit] | 
O=C(O)CCc1nnc(SCC(=O)Nc2cccc(C(F)(F)F)c2)[nH]c1=O |  | 0.00517 µM [rising, full curve, poor fit] | 0.00461 µM [rising, full curve, poor fit]
CC1CCc2c(sc3nc(CSc4n[nH]c(N)n4)[nH]c(=O)c23)C1 (stereo unspecified) | -27.8 |  | 2.91 µM [rising, single point]
CCSc1nnc(NC(=O)CSC2=NN3CCCC(=O)N=C3S2)s1 | 3.81 |  | 0.231 µM [falling, full curve, poor fit]
Cc1nnc(SCC(=O)Nc2nsc(-c3ccccc3)n2)s1 | 3.78 |  | 5.8 µM [rising, full curve, poor fit]
O=c1oc2cc([N+](=O)[O-])ccc2nc1/C=C(\O)c1cccc(Br)c1 | -24.3 |  | 1.03 µM [falling, full curve, poor fit]
COc1cc(NC(=O)c2ccc3snnc3c2)cc(OC)c1 | 5.29 | 0.082 µM [rising, full curve, poor fit] | 0.326 µM [rising, full curve, poor fit]
COc1ccc(-c2noc(-c3cc4ccccc4oc3=O)n2)cc1 | 11.8 |  | 
O=C1C(=O)N(CCCc2ccccc2)c2ccccc21 | -11.6 |  | 
COc1ccc(NC(=O)C(NS(=O)(=O)c2ccc3c(c2)CCCN3C(C)=O)C(C)C)c(OC)c1 (stereo unspecified) | -31.7 | 5.17 µM [falling, partial curve] | 29.1 µM [falling, single point]
CC(=O)N1CCN(c2ccc(NC(=O)c3ccc4ccccc4c3)cc2)CC1 | 23.1 |  | 1.84 µM [falling, full curve]
Cc1ccc(C)n1-c1ccc(C(=O)NN=C2CCCC2)cc1 |  |  | 0.116 µM [falling, single point]
c1ccc(CN=C2NN=C(c3cc4ccccc4o3)CS2)cc1 | -3.91 |  | 1.3 µM [rising, partial curve]
Cc1nc(-c2ccc(Cl)cc2)sc1C1(C)CC(c2ccc(F)cc2)=NO1 (stereo unspecified) | 21.6 |  | 29.1 µM [rising, single point]

Source: PubChem BioAssay AID2685 (National Center for Advancing Translational Sciences (NCATS), 2010)
